Reference: article PMC12429026
No constants are given. Whether binding was seen depends on the method and setting. Binding seen in cells or lysates may run through a third protein. Some results given as binding are weak or reduced against the parent protein; the word gives no strength.

By UniProt entry, the sequences of proteins in these tests, tags left out. Where a name states a change or a piece, a line headed by the entry shows the natural chain unless it says otherwise.
UniProt Q9Z183: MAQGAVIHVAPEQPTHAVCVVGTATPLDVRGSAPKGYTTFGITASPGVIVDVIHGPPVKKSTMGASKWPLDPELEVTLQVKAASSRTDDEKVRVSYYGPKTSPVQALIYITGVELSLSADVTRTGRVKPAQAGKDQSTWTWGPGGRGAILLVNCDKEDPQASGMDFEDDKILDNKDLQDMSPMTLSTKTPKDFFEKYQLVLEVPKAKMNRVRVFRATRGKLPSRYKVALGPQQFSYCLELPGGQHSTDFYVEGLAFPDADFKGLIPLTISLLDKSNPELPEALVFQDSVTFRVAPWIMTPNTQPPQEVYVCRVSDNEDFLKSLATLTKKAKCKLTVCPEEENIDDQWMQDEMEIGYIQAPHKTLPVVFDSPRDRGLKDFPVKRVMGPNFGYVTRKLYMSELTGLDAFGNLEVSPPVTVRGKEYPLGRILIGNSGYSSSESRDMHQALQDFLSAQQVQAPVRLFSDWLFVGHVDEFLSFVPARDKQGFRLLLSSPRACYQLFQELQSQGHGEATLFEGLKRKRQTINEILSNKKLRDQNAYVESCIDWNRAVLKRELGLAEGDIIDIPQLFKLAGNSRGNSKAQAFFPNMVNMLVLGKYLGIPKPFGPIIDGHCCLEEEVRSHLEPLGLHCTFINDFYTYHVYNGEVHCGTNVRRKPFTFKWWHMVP
UniProt Q60876: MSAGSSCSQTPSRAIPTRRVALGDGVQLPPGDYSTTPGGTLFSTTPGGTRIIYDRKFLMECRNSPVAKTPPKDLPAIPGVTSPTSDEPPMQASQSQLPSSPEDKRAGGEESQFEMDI
UniProt P27782: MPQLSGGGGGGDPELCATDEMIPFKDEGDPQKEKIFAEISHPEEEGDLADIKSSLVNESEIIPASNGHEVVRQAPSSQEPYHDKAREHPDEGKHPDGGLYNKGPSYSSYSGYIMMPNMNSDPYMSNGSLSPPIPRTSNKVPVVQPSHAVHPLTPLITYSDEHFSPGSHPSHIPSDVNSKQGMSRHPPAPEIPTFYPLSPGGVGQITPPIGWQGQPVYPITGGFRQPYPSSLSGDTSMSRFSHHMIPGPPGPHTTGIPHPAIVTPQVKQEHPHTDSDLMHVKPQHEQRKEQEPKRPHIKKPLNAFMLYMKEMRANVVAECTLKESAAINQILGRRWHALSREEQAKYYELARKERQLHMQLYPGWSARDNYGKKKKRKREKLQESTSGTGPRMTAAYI

Assays:
[1] = biological target: HA-PADI4 (pCW57.1) (mouse) (UniProt Q9Z183); experiment: co-IP; HA-PADI4 coexpressed with Flag-4E-BP1 WT or R62K in HEK293 cells; anti-HA beads by the text (anti-Flag by the legend); cells untreated or treated with ionomycin and Ca2+ before lysis
[2] = biological target: HA-PADI4 (pCW57.1) (mouse) (UniProt Q9Z183); experiment: co-IP; PADI4 and LEF1 overexpressed in HEK293 cells; lysate in Pierce IP lysis buffer with protease inhibitors; the precipitated protein is not named in the text (methods: HA beads for HA-PADI4)

binding [1]	binding [2]	Substance
binds		3xFlag-4E-BP1_R62K (pCW57.1) (from UniProt Q60876 1-117)
binds		3xFlag-4E-BP1_WT (pCW57.1) (from UniProt Q60876 1-117)
	binds	LEF1_6xHis (pUC.19) (from UniProt P27782 1-397)
